The target in this assay is Full length extracellular part of FGFR1 fused with Fc fragment (FGFR1 D1-D2-D3-Fc) (UniProt P11362). Description: BLI; Octet RED K2; FGFR1 D1-D3-Fc (10 µg/ml) chemically immobilised on AR2G biosensors; β-Klotho 11 µg/ml, alone or after and with excess scFv proteins (30 µg/ml); both purified. Background: BLI is a label-free optical method that tracks binding on a fibre tip over time.

Protein sequences, listed by entry. Tags and fused reporters are not part of them. Lines headed by an entry give the natural chain unless they say otherwise; changes in a name come on top. Residues count along the entry.
UniProt P11362, residues 22-376: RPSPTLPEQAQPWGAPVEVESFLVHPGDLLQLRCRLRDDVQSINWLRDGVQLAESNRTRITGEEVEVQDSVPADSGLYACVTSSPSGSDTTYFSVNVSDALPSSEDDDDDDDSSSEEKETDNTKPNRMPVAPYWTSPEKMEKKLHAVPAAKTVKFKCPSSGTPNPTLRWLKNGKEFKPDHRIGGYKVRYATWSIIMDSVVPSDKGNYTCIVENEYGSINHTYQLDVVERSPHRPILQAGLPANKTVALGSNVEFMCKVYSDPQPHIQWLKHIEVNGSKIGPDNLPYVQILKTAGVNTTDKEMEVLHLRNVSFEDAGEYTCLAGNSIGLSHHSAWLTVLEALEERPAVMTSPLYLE
UniProt Q86Z14: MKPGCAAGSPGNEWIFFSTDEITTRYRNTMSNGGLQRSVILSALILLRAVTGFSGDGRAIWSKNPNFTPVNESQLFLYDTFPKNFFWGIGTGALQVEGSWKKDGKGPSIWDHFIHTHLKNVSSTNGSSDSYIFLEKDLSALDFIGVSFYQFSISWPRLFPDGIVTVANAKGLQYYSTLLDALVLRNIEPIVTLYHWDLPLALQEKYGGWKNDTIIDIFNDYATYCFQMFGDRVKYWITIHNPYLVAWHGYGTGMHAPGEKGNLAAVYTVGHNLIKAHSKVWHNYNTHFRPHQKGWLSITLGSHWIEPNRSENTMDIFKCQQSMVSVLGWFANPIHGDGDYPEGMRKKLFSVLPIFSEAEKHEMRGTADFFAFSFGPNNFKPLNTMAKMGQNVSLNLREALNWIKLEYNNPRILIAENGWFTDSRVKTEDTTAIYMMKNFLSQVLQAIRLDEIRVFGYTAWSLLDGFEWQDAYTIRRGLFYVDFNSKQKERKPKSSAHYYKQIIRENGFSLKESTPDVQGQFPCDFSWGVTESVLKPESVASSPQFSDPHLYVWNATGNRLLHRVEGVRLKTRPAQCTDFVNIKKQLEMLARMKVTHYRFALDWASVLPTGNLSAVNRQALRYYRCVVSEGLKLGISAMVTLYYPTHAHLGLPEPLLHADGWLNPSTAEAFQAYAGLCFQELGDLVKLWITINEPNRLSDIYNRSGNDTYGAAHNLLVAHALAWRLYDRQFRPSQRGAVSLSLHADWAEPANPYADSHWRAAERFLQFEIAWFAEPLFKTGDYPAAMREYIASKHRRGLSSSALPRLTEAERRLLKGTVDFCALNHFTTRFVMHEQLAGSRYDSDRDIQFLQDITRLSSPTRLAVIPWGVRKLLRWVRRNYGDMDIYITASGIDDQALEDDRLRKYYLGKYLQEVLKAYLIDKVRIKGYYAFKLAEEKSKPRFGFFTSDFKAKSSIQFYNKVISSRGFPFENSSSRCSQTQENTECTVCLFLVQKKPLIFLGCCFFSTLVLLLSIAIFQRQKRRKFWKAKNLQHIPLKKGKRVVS

These are yes or no findings as the source states them, for the method shown. Binding calls can cover weak binding; strength is not graded here.

Consider “Human β-Klotho (from UniProt Q86Z14) (receptor)”, for which the binding result was “binds”.

(Values after PMC5540934.)
